Measured values: patent publication US10479793B2, “Imidazopyridazine compounds useful as modulators of IL-12, IL-23 and/or IFN alpha responses” (BRISTOL-MYERS SQUIBB COMPANY, priority 2015, dated 2019)
The match of structure and compound is tentative.

Amino acid sequences for entries named in this document (tags omitted). Chains listed by the source or under a name are the forms on record and can include a tag or linker. Residues count along the entry.
UniProt P29597, 575-869 with tags or gaps: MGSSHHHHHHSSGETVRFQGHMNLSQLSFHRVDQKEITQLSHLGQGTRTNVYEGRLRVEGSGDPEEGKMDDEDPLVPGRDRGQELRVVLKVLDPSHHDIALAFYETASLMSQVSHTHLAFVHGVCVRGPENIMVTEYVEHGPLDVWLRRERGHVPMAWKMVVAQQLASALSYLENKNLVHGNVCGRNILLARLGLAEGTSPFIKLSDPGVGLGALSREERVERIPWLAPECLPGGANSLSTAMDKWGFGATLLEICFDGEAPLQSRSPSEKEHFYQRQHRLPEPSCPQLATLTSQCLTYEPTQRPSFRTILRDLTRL

Molecular target: recombinantly expressed His-tagged protein corresponding to amino acids 575-869 of human Tyk2 (Homo sapiens, UniProt P29597)
Assay: Probe displacement assay (scintillation proximity, tritiated probe)
Assay type: binding
Conditions: read-out: Probe Displacement (EC50); His-tagged Tyk2 (575-869) 2.5 nM, 40 nM radiolabeled probe, 30 minutes at room temperature

## CNc1cc(Nc2cccnc2C(=O)NCC(C)(C)C)nn2c(C(=O)NC3CC3)cnc12
  EC50: 10 nM
